Assay results published in patent US20230027620A1, “PENTAPEPTIDE AND METHODS OF USE THEREOF” (THE BOARD OF TRUSTEES OF THE UNIVERSITY OF ILLINOIS, priority 2019, published 2023).
Not every detail of the peptide structures is certain; ends, links or a residue may be inferred. Residues, ends and D or L forms follow the SMILES beside them.

Legend:
[1] = tested on: Human corneal epithelial (HCE) cells; test: In vitro scratch assay, HCE cells; assay type: cell-based; settings: FIG. 3
Procedure: Human corneal epithelial (HCE) cells were cultured in a Medium Essential Media (MEM; Gibco, Life Technologies, Carlsbad, Calif.). HeLa cells were maintained in Dulbecco's Modified Eagle's Medium (DMEM; Life Technologies, Grand Island, N.Y.). Both media were supplemented with 10% fetal bovine serum (Gibco, Life Technologies, Carlsbad, Calif.) and 1% penicillin-streptomycin (Gibco, Life Technologies, Carlsbad, Calif.). […]
In Vitro Scratch Assay. […] The wound area at each time-point was measured using Image J software (Image J 1.47v, NIH, Thornwood, Bethesda, Md.). Relative wound closure was calculated by dividing the closure of the treated wound by that of the untreated wound. […]
A cell sprouting assay using HCE cells embedded as a spot in growth factor reduced solubilized basement membrane sold under the tradename MATRIGEL® (Corning Life Sciences, Tewksbury, Mass.) was used to determine if HST5 could promote epithelial cell migration. […] Time-lapse microscopy was performed and wound areas were analyzed at different time points. […]
Wound closure rates of the three salt forms were also analyzed in accordance with the methods disclosed herein. In particular, human corneal epithelial cells were scratched using standardized scratch assays and rates of wound healing were measured after application of the acetic acid, hydrochloride and trifluoroacetate salt forms of SHRGY (SEQ ID NO:2).

[2] = tested on: epithelial cell migration; test: In vitro scratch assay, truncation and scrambled peptide series (FIG. 1; cell line not given); assay type: cell-based
Procedure: Peptides were tested for efficacy in accelerating scratch closure rates. Negative controls included untreated and multiple scrambled peptide (SP) controls. All peptides were tested at 80 μM concentration. All experiments were performed in triplicate with three technical replicates for each experiment. Statistical significance was determined by one-way ANOYA with Dunnett's post-hoc test. *p<0.05; **p<0.01; ***p<0.001. Relative closure=(% closure of treated sample)/(% closure of Untreated control).
In Vitro Scratch Assay. HCE, HCLE, HELA and MCF-7 cells were cultured in a 24-well plate at 2.5×10^5 (cells/well) seeding density, and were grown to confluence on a 24-well plate. Subsequently, a straight-line scratch mark was made with a sterile P200 pipette tip. The cells were then washed twice with phosphate-buffered saline (PBS) to remove cellular debris. Wounded areas were then treated with the peptides provided in Table 5 at various concentrations in standard medium with reduced serum conditions (0.5% FBS in MEM medium (HCE), growth factor-free K-SFM media (HCLE), 1% FBS in DMEM medium (HeLa) and 0.5% FBS in RPMI 1640 medium (MCF-7)). […] The wound area at each time-point was measured using Image J software (Image J 1.47v, NIH, Thornwood, Bethesda, Md.). Relative wound closure was calculated by dividing the closure of the treated wound by that of the untreated wound. […]

[3] = tested on: corneal epithelial wound in C57BLl6J mice; test: Murine corneal epithelial injury (wound healing) model; assay type: in vivo; settings: 80 μM
Procedure: Wounded areas were treated with Hst5, SHRGY (SEQ ID NO:2) or SP1 peptides (n=7 for each group), each tested at 80 μM concentration. Wound areas at multiple time points were measured using Image J software. […] Statistical significance was determined by a two-way ANOVA with Bonferroni post-hoc test. **P<0.01, ***P<0.001. % Wound area=(Wound area at time X/Wound area at time 0)×100.
Wound Healing Assay. Corneal wounding experiments in mice were conducted in compliance with the Association for Research in Vision and Ophthalmology (ARVO) Statement for the Use of Animals in Ophthalmic and Vision Research. The protocol was approved by the Animal Care & Use Committee of the University of Illinois at Chicago. Twelve-to-nineteen week old C57BLl6J (Jackson Laboratory, Bar Harbor, Me.) mice were anesthetized with intraperitoneal injection of ketamine (100 mg/kg) and xylazine (5 mg/kg). After applying two drops of topical 0.5% proparacaine, a 2.0-mm area of the central epithelium was demarcated using 2-mm disposable biopsy punch and removed by an AlgerBrush II (The Alger Company, Lago Vista, Tex.). In the treatment (n=7) or the control (n=7) group, Histatin=5 (80 μM), SHRGY peptide (SEQ ID NO:2; 80 μM), or SP1 (80 μM) was applied to the cornea three times a day. […] Wound sizes were compared with the baseline for each mouse and the percentages of wound closure was measured using Image J software. […]

Structure (SMILES) | rates of wound closure of salt forms (scratch assay) [1] | scratch (wound) closure rates, relative closure ([2]; 80 μM, FIG. 1, vs untreated control) | epithelial migration ([2]; summary statement: immortalized human corneal epithelial cells, immortalized human corneal limbal epithelial cells, HeLa human cells, mouse corneal wounding models) | % remaining corneal wound area compared to baseline ([3]; 18 hours and 24 hours, compared to SP1, n=7) | corneal wound closure rates ([3]; topical, three times a day, vs scrambled peptide control SP1)
N=C(N)NCCC[C@H](NC(=O)[C@H](Cc1c[nH]cn1)NC(=O)[C@@H](N)CO)C(=O)NCC(=O)N[C@@H](Cc1ccc(O)cc1)C(=O)O [SHRGY acetic acid, SHRGY] (H-SHRGY-OH) | enhanced rates of wound closure | – | – | – | –
N=C(N)NCCC[C@H](NC(=O)[C@H](Cc1c[nH]cn1)NC(=O)[C@@H](N)CO)C(=O)NCC(=O)N[C@@H](Cc1ccc(O)cc1)C(=O)O [SHRGY] (H-SHRGY-OH) | – | significant increases in scratch closure rates | significantly enhance epithelial migration | statistically significant improvement | significant improvement in corneal wound closure rates
